In patent US20150030583A1, “Methods of Treating Serosal Cancer” (SLOAN KETTERING INSTITUTE FOR CANCER RESEARCH, priority 2011, published 2015):
Like-named read-outs stand apart in the source and are kept apart here.

System: Ovcar3-GTL catenae
Assay: Ovcar3-GTL catena drug sensitivity / proliferation screen (alamarBlue, 384-well)
[1] = read-out: IC50 (μM) No coat, pathway-specific inhibitors, catena cells without glycocalyx coat
[2] = read-out: IC50 (μM) With coat, pathway-specific inhibitors, catena cells with glycocalyx coat

IC50 [1]	IC50 [2]	Compound	IC50 (24 h, read-out: IC50 (μM) Addition on Day 1, Ovcar3-GTL catenae, compound added one day after seeding (cells predominantly lacking a glycocalyx))	IC50 (144 h, read-out: IC50 (μM) Addition on Day 6, Ovcar3-GTL catenae, compound added six days after seeding (established or substantial glycocalyx))	Fold resistance (increased resistance of catena cells with glycocalyx coat versus no coat)	Increase in Resistance Day6/Day 1 (ratio of IC50 day 6 to day 1, Ovcar3-GTL catenae)
13.4 µM	> 25 µM	CNC(=O)c1ccccc1Sc1ccc2c(/C=C/c3ccccn3)n[nH]c2c1 [Axitinib]	–	–	–	–
0.78 µM	3.14 µM	O=C(CCCCCCC(=O)Nc1ccccc1)NO [SAHA, Vorinostat]	1.5 µM	12 µM	4 fold	8 fold
